PubChem BioAssay AID1259425, University of Nebraska Medical Center – 2018
Purpose: 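Seek colon cancer weak points whose silencing resembles KSR1 loss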 (primary screen). Cells: HCT116 human colon cancer cells. Reagents: siRNA pool against human genes, 50 nM siRNA. Read-out: 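After 50 nM siRNA pool, branched-DNA assay measures six marker transcripts per well, minus blank, normalised to the geometric mean of two housekeeping transcripts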. Reading the numbers: BNIP3L mRNA: higher = more BNIP3L transcript after knockdown; NDRG1 mRNA: higher = more NDRG1 transcript after knockdown; BNIP3 mRNA: higher = more BNIP3 transcript after knockdown; ALDOC mRNA: higher = more ALDOC transcript after knockdown; ACSL5 mRNA: higher = more ACSL5 transcript after knockdown.
This is a random part of about 14,000 reagents tested. Reagents against one gene are numbered here. No sequences are given here. Not stated in the record: the time to read-out.

| gene | pool no. | BNIP3L mRNA, set 1 | NDRG1 mRNA, set 1 | BNIP3 mRNA, set 1 | ALDOC mRNA, set 1 | ACSL5 mRNA, set 1 |
| --- | --- | --- | --- | --- | --- | --- |
| XRCC2 | 1 | 0.121 | 0.275 | 0.146 | 0.0146 | 0.124 |
| PSG4 | 1 | 0.147 | 0.453 | 0.258 | 0.0459 | 0.254 |
| TRIM34 | 1 | 0.124 | 0.347 | 0.312 | 0.0292 | 0.167 |
| SLC37A3 | 1 | 0.164 | 0.295 | 0.279 | 0.082 | 0.461 |
| MLNR | 1 | 0.142 | 0.461 | 0.44 | 0.0327 | 0.201 |
| MPHOSPH8 | 1 | 0.0996 | 0.144 | 0.273 | 0.0233 | 0.141 |
| GPR174 | 1 | 0.0814 | 0.558 | 0.414 | 0.0719 | 0.186 |
| KPNA2 | 1 | 0.153 | 0.308 | 0.365 | 0.0511 | 0.106 |
| TBC1D23 | 1 | 0.0647 | 0.0926 | 0.193 | 0.0461 | 0.143 |
| MSRB2 | 1 | 0.0952 | 0.0841 | 0.227 | 0.0237 | 0.17 |
| NLK | 1 | 0.186 | 0.0769 | 0.366 | 0.011 | 0.354 |
| BCL6 | 1 | 0.069 | 0.0876 | 0.191 | 0.00983 | 0.18 |
| MAK16 | 1 | 0.175 | 0.146 | 0.317 | 0.0126 | 0.284 |
| ZFP36L2 | 1 | 0.125 | 0.568 | 0.342 | 0.065 | 0.142 |
| DDX17 | 1 | 0.0708 | 0.229 | 0.302 | 0.0318 | 0.15 |
| NPEPPS | 1 | 0.0826 | 0.0709 | 0.234 | 0.0209 | 0.207 |
| DGKG | 1 | 0.0451 | 0.0582 | 0.199 | 0.00309 | 0.132 |
| RDH11 | 1 | 0.117 | 0.76 | 0.511 | 0.0561 | 0.243 |
| FRMD5 | 1 | 0.0978 | 0.639 | 0.327 | 0.06 | 0.415 |
| TEX14 | 1 | 0.0862 | 0.133 | 0.349 | 0.00508 | 0.146 |
| CRTC1 | 1 | 0.272 | 1.17 | 0.428 | 0.049 | 0.213 |
| UBL5 | 1 | 0.195 | 0.214 | 0.261 | 0.0654 | 0.113 |
| KCTD10 | 1 | 0.288 | 1.21 | 0.35 | 0.0964 | 0.482 |
| ELOVL1 | 1 | 0.103 | 0.135 | 0.384 | 0.0466 | 0.128 |
| RPL32 | 1 | 0.135 | 0.156 | 0.267 | 0.0159 | 0.0923 |
| KIAA0319L | 1 | 0.0454 | 0.172 | 0.248 | 0.0202 | 0.185 |
| COL9A2 | 1 | 0.106 | 0.242 | 0.267 | 0.0507 | 0.188 |
| CEP68 | 1 | 0.106 | 0.113 | 0.408 | 0.0162 | 0.157 |
| TOMM7 | 1 | 1.79 | 3.38 | 3.83 | 0.608 | 0.183 |
| EFR3A | 1 | 0.122 | 0.136 | 0.307 | 0.0846 | 0.162 |
| STKLD1 | 1 | 0.239 | 0.158 | 0.347 | 0.0176 | 0.327 |
| CHFR | 1 | 0.0769 | 0.131 | 0.287 | 0.0274 | 0.123 |
| GRWD1 | 1 | 0.243 | 0.177 | 0.185 | 0.0609 | 0.304 |
| ANP32D | 1 | 0.0908 | 0.472 | 0.288 | 0.00836 | 0.272 |
| PML | 1 | 0.0975 | 0.278 | 0.302 | 0.0227 | 0.157 |
| IFI6 | 1 | 0.131 | 0.15 | 0.288 | 0.0187 | 0.221 |
| SPR | 1 | 0.11 | 0.259 | 0.266 | 0.0282 | 0.156 |
| PARP4 | 1 | 0.0874 | 0.167 | 0.645 | 0.0124 | 0.151 |
| GSTO1 | 1 | 0.0618 | 0.175 | 0.199 | 0.0119 | 0.167 |
| LINC01547 | 1 | 0.195 | 0.173 | 0.239 | 0.0343 | 0.183 |
| LINC01547 | 2 | 0.0787 | 0.111 | 0.297 | 0.0267 | 0.144 |
| GZMH | 1 | 0.167 | 0.0606 | 0.432 | 0.0373 | 0.0746 |
| MYO1F | 1 | 0.159 | 0.203 | 0.324 | 0.054 | 0.214 |
| WDR13 | 1 | 0.287 | 0.797 | 0.308 | 0.041 | 0.321 |
| RHOXF2 | 1 | 0.435 | 0.395 | 0.564 | 0.151 | 0.421 |
| MOCS3 | 1 | 0.184 | 0.398 | 0.257 | 0.0136 | 0.241 |
| GSTZ1 | 1 | 0.0789 | 0.0993 | 0.168 | 0.0112 | 0.157 |
| IL23A | 1 | 0.311 | 1.08 | 0.874 | 0.155 | 0.247 |
| PMCHL2 | 1 | 0.199 | 0.33 | 0.275 | 0.0377 | 0.358 |
| RCN3 | 1 | 0.162 | 0.53 | 0.255 | 0.032 | 0.221 |

Laid out differently: entries from further up.
gene | pool no. | BNIP3L mRNA, set 1 | NDRG1 mRNA, set 1 | BNIP3 mRNA, set 1 | ALDOC mRNA, set 1 | ACSL5 mRNA, set 1
GRWD1 | 1 | 0.243 | 0.177 | 0.185 | 0.0609 | 0.304
ANP32D | 1 | 0.0908 | 0.472 | 0.288 | 0.00836 | 0.272
PML | 1 | 0.0975 | 0.278 | 0.302 | 0.0227 | 0.157
IFI6 | 1 | 0.131 | 0.15 | 0.288 | 0.0187 | 0.221
SPR | 1 | 0.11 | 0.259 | 0.266 | 0.0282 | 0.156
PARP4 | 1 | 0.0874 | 0.167 | 0.645 | 0.0124 | 0.151
